# Reference: PubChem BioAssay AID2685 (National Center for Advancing Translational Sciences (NCATS), 2010)
# In all, about 320,000 compounds went through this assay and about 2,100 (0.66%) were called active. The shares of active, inactive and inconclusive entries below differ from those in the screen. Calls come from the whole dose curve; as a rule, active = well fitted inhibition curve with a large enough effect in the signal ratio, with a control signal flat (not every such curve was filed as active); inconclusive = small, poorly fitted or top-dose-only effect, or effect the other way, or a change in a side signal; inactive = flat fitted curve, though single readings scatter; the % refers to the signal ratio. A potency beside an inconclusive call is a rough fit, not a confirmed value.
# Experiment: qHTS Assay for Lipid Storage Modulators in Drosophila S3 Cells
# Conditions: BODIPY lipid droplet fluorescence, 18-24 h, cells fed with added oleic acid; lipid storage change, negative = inhibition: at 46.1 µM (top of the series) unless noted
# Procedure, shortened: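 Drosophila S3 cells got compounds at several concentrations plus oleic acid (400 uM solution). Laser-scanning cytometry with 488 nm excitation read lipid droplets at 500-530 nm and cells at 575-640 nm. Percent activity was relative to 20 uM Triacsin C.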
# % is set by controls: 0 for no effect and ±100 for the full control effect; potency is the fitted concentration of half-maximal effect.
Structure (SMILES),Potency,"lipid storage change, negative = inhibition",outcome
COc1ccc(NC(=O)N2CCN(c3cccc(C(F)(F)F)c3)CC2)cc1OC,"inconclusive: 0.326 µM [falling, partial curve]",–,–
COc1ccc2cc(C(c3nnnn3C3CCCC3)N3CCc4ccccc4C3)c(=O)[nH]c2c1 (configuration not stated),–,inconclusive: 12.1%,–
CCNC(=O)c1ccc(NS(=O)(=O)c2ccc3[nH]c(=O)[nH]c3c2)cc1,"inconclusive: 0.0058 µM [falling, full curve, poor fit]",–,–
O=C(O)C1(O)C[C@H](O)C(O)[C@@H](O)C1 (some centres not stated),–,inconclusive: -20.5%,–
COc1ccc(-c2noc(COc3ccc(Cl)c(C)c3)n2)cc1,–,inconclusive: 8.35%,–
CC(=C/C(=O)O)/C=C/c1cccs1,–,inconclusive: -4.56%,–
COc1ccc(/C=N/NC(=O)c2ccccc2)cc1OS(=O)(=O)c1ccccc1,–,inconclusive: -0.697%,–
Cc1csc(=O)n1CC(=O)Nc1nc2ccccc2s1,"inconclusive: 29.1 µM [falling, single point]",–,–
CCn1c(COc2cccc(OC)c2)nnc1SCC(=O)NCC1CCCO1 (configuration not stated),"inconclusive: 18.4 µM [activator, single point]",–,–
COCCNCC(=O)NC12CC3CC(CC(C3)C1)C2,–,inconclusive: 15.6% [at 9.22 µM],–
Cn1c(=O)[nH]c(=O)c2c1nc(N/N=C/c1ccncc1)n2Cc1ccc(F)cc1,–,inconclusive: 25.2%,–
O=C(O)c1ccc(N=Nc2c(O)[nH]c3ccccc23)cc1,–,inconclusive: -22.8%,–
O=C(Nc1ccc(Cl)cn1)C1CCN(S(=O)(=O)c2cccs2)CC1,–,inconclusive: -30.8%,–
Cc1nc(N(C)Cc2ccccc2)c2nnn(Cc3ccccc3)c2n1,"inconclusive: 0.651 µM [activator, single point]",–,–
Cc1cccc(NC(=O)Nc2cccnc2)c1C,–,inconclusive: -30.5%,–
COC(=O)c1[nH]c2ccc(C)cc2c1NC(=O)C(C)N1CCN(C2CCCCC2)CC1 (configuration not stated),"inconclusive: 18.4 µM [falling, single point]",–,–
COc1ccc(Cc2nc3ccc(C(=O)NCc4ncc(C)[nH]4)cc3o2)cc1OC,"inconclusive: 0.58 µM [falling, single point]",–,–
CCOc1ccc2nc(NC(=O)c3ccccn3)sc2c1,"inconclusive: 29.1 µM [falling, single point]",–,–
COc1ccc(NC(=O)C2CC(c3ccccc3O)=NO2)cc1OC (configuration not stated),–,–,inactive [at 46.1 µM]
O=C(Nc1ccc(S(=O)(=O)NC2=NCCCCC2)cc1)c1ccc(Cl)cc1Cl,"inconclusive: 11.6 µM [activator, partial curve, poor fit]",–,–
Cn1c(CCN2CCCCC2)nc2cc(NC(=O)Nc3ccccc3)ccc21,"inconclusive: 0.326 µM [falling, full curve]",–,–
COc1ccc(C2N=C(Nc3ccc(C)cc3)Nc3nc(C)cc(=O)n32)cc1 (configuration not stated),"inconclusive: 8.2 µM [activator, single point]",–,–
CCOC(=O)N1CCN(C(=O)Cc2ccc(Cl)cc2)CC1,"inconclusive: 1.84 µM [falling, partial curve, poor fit]",–,–
CC1CCCCC1NS(=O)(=O)c1ccc(S(=O)(=O)N2CCN(CCC#N)CC2)cc1 (configuration not stated),–,inconclusive: 28.5%,–

Structure (SMILES),Potency,"lipid storage change, negative = inhibition",outcome
Cc1ccc(C(=O)N2CCN=C2SCc2ccc([N+](=O)[O-])cc2)cc1,–,inactive: 15.5%,–
CC(=O)Nc1ccc(OCc2ccc3c(c2)OCO3)cc1,–,inconclusive: -2.41%,–
CCOC(=O)CN(C(=O)CNC(=O)c1cccs1)C(C(=O)NC1CCCC1)c1cccnc1 (configuration not stated),–,inconclusive: 106%,–
O=C1c2cccc3cccc(c23)N1Cc1cccc(F)c1,"inconclusive: 1.03 µM [falling, partial curve]",–,–
O=C(NCCc1c[nH]c2ccccc12)c1ccc([N+](=O)[O-])cc1,–,inconclusive: 10.9%,–
CCc1ccc(NC(=O)CSc2nnc(-c3cnccn3)n2C)cc1,"inconclusive: 25.9 µM [activator, single point]",–,–
COc1ccc(Cc2nnc(NC(=O)Nc3ccccc3F)s2)cc1,–,inconclusive: 19.2%,–
CCc1c(C)sc(NC(=O)CN2CCN(C(=O)c3ccco3)CC2)c1C(=O)OC,–,inconclusive: -70%,–
COC(=O)c1c(C)[nH]c(O)c1C=Nc1ccc(C(C)C)cc1,–,inconclusive: -50.1%,–
CCCCn1c(N)c(N(CC)C(=O)CSCc2c(C)noc2C)c(=O)[nH]c1=O,"inconclusive: 29.1 µM [activator, single point]",–,–
NS(=O)(=O)c1ccc(O)c(N2C(=O)c3cccc4c(C(=O)c5ccccc5)ccc(c34)C2=O)c1,–,inconclusive: -0.782%,–
Cc1ccc(CN2CC(C(=O)N3CCN(S(=O)(=O)c4ccc(C)cc4C)CC3)CC2=O)cc1 (configuration not stated),–,inconclusive: -86.9%,–
CCOc1ccc(C(=O)NC2CC3CCCC(C2)N3Cc2ccccc2)cc1 (configuration not stated),–,inconclusive: -21.3%,–
O=C(Nc1ccc(F)c(Cl)c1)N1CCCC1,–,inconclusive: -17.8%,–
Cc1ccc(-c2nn3c(C)nnc3s2)cc1N,–,inconclusive: 48.4%,–
CCOc1ccc(-n2c(C)nc3c(cnn3-c3ccc(Cl)cc3)c2=O)cc1,"inconclusive: 29.1 µM [rising, partial curve, poor fit]",–,–
CC(C)OC(=O)CSc1ncnc2c1cnn2Cc1ccccc1,"inconclusive: 0.164 µM [falling, full curve, poor fit]",–,–
CCOC(=O)c1c(C)[nH]c(C(=O)N2CCN(c3ccc(OC)cc3)CC2)c1C,–,inconclusive: 45%,–
CCCc1cc(=O)[nH]c(SCC(=O)NCC2COc3ccccc3O2)n1 (configuration not stated),–,inconclusive: 15.5%,–
CC12CC3CC(C)(C1)CC(C(O)CN1CCOCC1)(C3)C2 (configuration not stated),"inconclusive: 0.58 µM [falling, single point]",–,–
O=C(Nc1cc(S(=O)(=O)N2CCOCC2)ccc1N1CCCC1)c1cc(F)c(F)cc1Cl,"inconclusive: 4.61 µM [falling, single point]",–,–
COc1ccccc1N1CCN(C(=O)c2ccc3c(c2)CCN3S(C)(=O)=O)CC1,–,inconclusive: 9.76%,–
C=C(C)C1CC=C(C)/C(=N/NC(=S)Nc2ccccc2)C1 (configuration not stated),–,inconclusive: 33.4%,–

# In a second layout: results already given.
Structure (SMILES)	Potency	lipid storage change, negative = inhibition	outcome
CCOC(=O)c1c(C)[nH]c(C(=O)N2CCN(c3ccc(OC)cc3)CC2)c1C	–	inconclusive: 45%	–
CCCc1cc(=O)[nH]c(SCC(=O)NCC2COc3ccccc3O2)n1 (configuration not stated)	–	inconclusive: 15.5%	–
